For at least one compound, name, drawing or mass did not settle the structure.
System: pancreatic β cells
Assay: Insulin secretion from pancreatic β cells with Ca2+ channel, α2-adrenergic and KATP modulators
Settings: L-type Ca2+ channel antagonist suppressing influx of Ca2+ ions

## CCOC(=O)C1=C(C)NC(C)=C(C(=O)OC)C1c1cccc([N+](=O)[O-])c1 (stereo not shown) [nitrendipine]
  effect on insulin secretion caused by αKG and DPD: blocked
